# Screening data, single-dose tests

Measurements from “University of Dundee, Small-Polar-MMV Screening Library” (2021), ChEMBL document CHEMBL3988442.

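Whole-parasite assay of Trypanosoma brucei over 72 hours; the read-out is not stated. Concentration: 30 µM. The record gives no direction; compounds that gave an IC50 in retests scored well above the rest, so higher reads as stronger inhibition. Values scatter widely below zero; nearly all retest evidence comes from the higher of the two concentrations used. Size under these conditions: about 64,000 compounds, about 940 of them at 50% or above in at least one test.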

Results are given as percent effect. The controls that fix the scale are not given in the record; negative values are as filed. This is an unselected part of the compounds tested.

{"structure": "[H][C@@]12CCN(C(=O)CC)C[C@]1([H])OCCN(Cc1ccc(OC)cc1)C2=O", "effect": -14.44}
{"structure": "Cn1cc(N2CCC(NC(=O)c3ccccc3F)C2=O)cn1", "stereo": "stereo not given", "effect": 6.156}
{"structure": "Fc1ccc(-c2nccnc2C2CCCNC2)cc1", "stereo": "stereo not given", "effect": -3.462}
{"structure": "Cc1nc(C)c(C(=O)N2CCc3ccc(F)cc3C2C)o1", "stereo": "stereo not given", "effect": -10.98}
{"structure": "Cn1nc2c(cc1=O)CN(CC(=O)Nc1nncs1)CC2", "effect": -7.924}
{"structure": "Oc1cccc(CNCC2CCCO2)c1", "stereo": "stereo not given", "effect": -47.83}
{"structure": "COCCCn1ccc(NC(=O)NCCn2ccnc2)n1", "effect": -35.64}
{"structure": "[H][C@@]12COC[C@H](C(=O)N3CCOCC3)[C@]1([H])CN(CC1CCC1)C2", "effect": -75.59}
{"structure": "Cn1cnc2c1CCN(Cc1nc(-c3ccco3)no1)C2", "effect": -21.96}
{"structure": "CC(=O)c1cn(CCC(=O)Nc2c3c(nn2C)CSC3)c2ccccc12", "effect": 0.3722}
{"structure": "O=C(NCCCN1CCC(OC2CCCCC2)CC1)C1CCCC1", "effect": -42.64}
{"structure": "CCOCC(=O)NC1(c2nc(C)cs2)CCCC1", "effect": 0.7209}
{"structure": "CCn1ncnc1CN1CCC(CNC(=O)c2cccc(C)n2)C1", "stereo": "stereo not given", "effect": -14.61}
{"structure": "Cc1cc2c(=O)n3c(nc2s1)CCN(Cc1cnn(C)c1C)CC3.Cl", "effect": 12.53}
{"structure": "c1cnn(CC2CCCN2c2ncnc3c2CCC3)c1", "stereo": "stereo not given", "effect": -28.21}
{"structure": "CCNC(=O)C1(Cc2cc(-c3ccccc3)no2)CCCN(C)C1", "stereo": "stereo not given", "effect": 5.085}
{"structure": "Cc1cc(CC2COc3ccccc3C2)cnc1N", "stereo": "stereo not given", "effect": 8.979}
{"structure": "c1cnc(-c2nc(CNC3CCc4ncnn4C3)cs2)nc1", "stereo": "stereo not given", "effect": 3.46}
{"structure": "CC(C)NC(=O)C1CN(C(=O)Cc2ccccc2)CC12CCOCC2", "stereo": "stereo not given", "effect": -42.08}
{"structure": "CN(C)S(=O)(=O)c1ccc2c(c1)N(Cc1nccn1C)CC2", "effect": 5.781}
{"structure": "Fc1cccc(-c2nnn3c2COC(CNCc2nccs2)C3)c1.O=C(O)C(F)(F)F", "stereo": "stereo not given", "effect": -77.71}
{"structure": "CC(C)(O)CCc1ccc(C(=O)N2CCN(CCS(C)(=O)=O)CC2)cc1", "effect": -15.23}
{"structure": "Cc1ccc(S(=O)(=O)N2CCN(Cc3ccncc3)CC2)c(Cl)c1", "effect": -24.89}
{"structure": "OC1(CNCc2csc(-c3ncccn3)n2)CCCNC1", "stereo": "stereo not given", "effect": 1.005}
{"structure": "Cc1nn(C)c2nc(NCCN3CCCC(C(N)=O)C3)sc12", "stereo": "stereo not given", "effect": -1.146}
{"structure": "CN1CCN(Cc2ccccc2Oc2ccc(C(N)=O)cn2)CC1", "effect": -12.07}
{"structure": "Cc1cn(CC(=O)NC2CCC3(CC2)OCCO3)c2ccccc12", "effect": -1.952}
{"structure": "Cc1cnn(CC2CCN(CC(O)COc3ccccc3)CC2)c1", "stereo": "stereo not given", "effect": -62.91}
{"structure": "Cc1nccn1[C@@H]1CC[C@@H](NC(=O)Cn2c(C)nc3ccccc32)[C@H]1O", "effect": -13.28}
{"structure": "O=C(Nc1nccs1)N1CCCC(N2CCNC2=O)C1", "stereo": "stereo not given", "effect": -68.4}
{"structure": "O=C(O)C(F)(F)F.O=C(O)C(F)(F)F.O=C(O)C(F)(F)F.[H][C@@]12CN(Cc3cnn(C)c3)C[C@]1([H])OCCN2CCN(C)C", "effect": -26.98}
{"structure": "O=C(Nc1nc(-c2ccccc2)ns1)N1CC[C@H](O)C1", "effect": -32.93}
{"structure": "C=C(C)CN1CCC(C(=O)c2cc(F)ccc2F)CC1", "effect": -12.52}
{"structure": "N#Cc1cccc(N2CCC(CO)(CCc3ccccc3)CC2)n1", "effect": -28.86}
{"structure": "NCc1n[nH]c(-c2ccc(Br)cc2)n1", "effect": -5.251}
{"structure": "Cc1ccc(C(NC(=O)Cn2cc(C3CC3)nn2)C2CC2)cc1", "stereo": "stereo not given", "effect": -4.292}
{"structure": "O=C(Cc1ccccc1C(F)(F)F)N1CCC2(CC1)OCCCC2O", "stereo": "stereo not given", "effect": -18.48}
{"structure": "O=C(NCCc1cccs1)N1CCCC2(CCC(=O)N(C3CC3)C2)C1", "stereo": "stereo not given", "effect": -35.51}
{"structure": "COCc1nc(C(=O)N2CCCC(n3nc(C)cc3C)C2)cs1", "stereo": "stereo not given", "effect": 3.384}
{"structure": "CC(C)=CCN1CCNC(=O)C1CC(=O)N1CCc2sccc2C1", "stereo": "stereo not given", "effect": -36.76}
{"structure": "CCc1noc(CC)c1CC(=O)N1CCCC(N2CCCCC2)C1", "stereo": "stereo not given", "effect": -5.745}
{"structure": "Cc1cc(C)n(CC(C)CNC(=O)NCc2c(C)cc(C)[nH]c2=O)n1", "stereo": "stereo not given", "effect": 1.686}
{"structure": "CC(C)N1CCC(c2ccnc3c(C(=O)N4CCCC4)ncn23)CC1", "effect": -67.73}

3 of the entries, repeated:

structure,effect
OC1(CNCc2csc(-c3ncccn3)n2)CCCNC1 (stereo not given),1.005
c1cnn(CC2CCCN2c2ncnc3c2CCC3)c1 (stereo not given),-28.21
O=C(NCCc1cccs1)N1CCCC2(CCC(=O)N(C3CC3)C2)C1 (stereo not given),-35.51